The record followed here is patent US20180094250.

Amino acid sequences for entries named in this document (tags omitted). A change or cut given only in a name is not applied to a line headed by its entry.
UniProt P61875: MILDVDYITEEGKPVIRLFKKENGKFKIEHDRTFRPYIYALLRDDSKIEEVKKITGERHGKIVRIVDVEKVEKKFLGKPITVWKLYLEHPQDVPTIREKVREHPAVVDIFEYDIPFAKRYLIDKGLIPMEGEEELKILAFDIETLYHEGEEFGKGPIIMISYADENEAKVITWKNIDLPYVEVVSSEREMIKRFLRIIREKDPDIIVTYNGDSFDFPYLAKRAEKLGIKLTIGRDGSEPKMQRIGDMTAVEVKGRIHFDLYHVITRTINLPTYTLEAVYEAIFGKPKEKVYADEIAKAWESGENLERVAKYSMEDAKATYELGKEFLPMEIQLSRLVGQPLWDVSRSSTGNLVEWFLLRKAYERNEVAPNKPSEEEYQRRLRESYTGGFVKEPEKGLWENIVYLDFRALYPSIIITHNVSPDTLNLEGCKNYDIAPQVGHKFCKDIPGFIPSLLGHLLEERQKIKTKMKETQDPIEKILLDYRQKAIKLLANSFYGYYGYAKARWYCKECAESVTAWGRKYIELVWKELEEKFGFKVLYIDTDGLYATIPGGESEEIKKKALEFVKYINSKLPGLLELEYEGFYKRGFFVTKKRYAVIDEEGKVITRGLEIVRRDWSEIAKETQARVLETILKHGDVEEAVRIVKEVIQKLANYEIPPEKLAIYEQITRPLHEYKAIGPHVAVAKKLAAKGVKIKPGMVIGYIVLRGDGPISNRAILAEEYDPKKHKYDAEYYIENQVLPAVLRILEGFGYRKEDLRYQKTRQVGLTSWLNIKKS

Data set [1] deals with ECA001 modified with 2,3-diphenylmaleic anhydride, not activated (UniProt P61875). Nature of the data set: activity assay. To be noted: enzyme inactivated by DPMA; binding not measured; purified recombinant protein; label: 5' BHQ1, FAM on penultimate dT; folded or branched DNA.
The target of data set [2] is ECA001G (citraconic anhydride-modified ECA001, not activated) (UniProt P61875). The data set can be described thus: activity assay. To be noted: no detectable polymerase activity before activation; binding not measured; purified recombinant protein; label: 5' BHQ1, FAM on penultimate dT; folded or branched DNA.
The target in data set [3] is ECA001 modified with 2,3-diphenylmaleic anhydride, not activated (UniProt P61875). The data set can be described thus: enzyme reaction in vitro. The following applies: enzyme inactivated by DPMA; binding not measured; purified recombinant protein; label: 5' BHQ, FAM on 3'-terminal dT; folded or branched DNA.
For data set [4], the target named is ECA001G (citraconic anhydride-modified ECA001, not activated) (UniProt P61875). The data set can be described thus: enzyme reaction in vitro. The following applies: no detectable exonuclease activity before activation; binding not measured; purified recombinant protein; label: 5' BHQ, FAM on 3'-terminal dT; folded or branched DNA.

A negative result means that nothing was seen under these conditions.

In the case of “ATCATCATATCATCAACTGGCCGTCGTTTTACATATGTAAAACGACGGCCAGTT [Polsub14]”, the “activity on this sequence” value in data set [1] and in data set [2] was “not active” in each case.

Turning to “TTTTCTGGCCGTCGTTTTACATATGTAAAACGACGGCCAGT [Exo-MM HP]”, the “activity on this sequence” value in data set [3] and in data set [4] was “not active” in each case.
